Test results: patent publication US20090281040A1, “Methods For Treating Endoplasmic Reticulum (ER) Stress Disorders” (priority 2008, published 2009)
Some of these results come from one statement about several compounds together. Some ranges recur; such a range may be that of the whole group of compounds. Where a SMILES comes first, the peptide text is derived from it. The star is where a group is joined. Cbz = O=C(OCc1ccccc1)*

Assays:
Akt1 mRNA = Akt1 mRNA expression by real-time PCR; type: cell-based, rat; mouse; conditions: INS-1 832/13, neuro2A and mouse embryonic fibroblasts; 16 hr; TM 5 μg/ml, Tg 1 μM, MG132 2 μM, STR 0.05 and 0.01 μM
Protocol: (§1) Real-time polymerase chain reaction. Total RNA was isolated from cells using RNeasy Mini Kit (Qiagen) and reverse transcribed using 1 μg of total RNA from cells with Oligo-dT primer. For the thermal cycle reaction, the iQ5 system (BioRad, Hercules, Calif.) was used at 95° C. for 10 min, 40 cycles at 95° C. for 10 sec, and at 55° C. for 30 sec.
(§2) The relative amount for each transcript was calculated by a standard curve of cycle thresholds for serial dilutions of cDNA samples and normalized to the amount of actin. The polymerase chain reaction (PCR) was done in triplicate for each sample, after which all experiments were repeated twice. The following sets of primers and Power SYBR Green PCR Master Mix (Applied Biosystems, Foster City, Calif.) were used for real-time PCR:
Whether Akt1 expression is increased by ER stress was examined. The expression levels of Akt1 mRNA were measured in the presence of ER stress in INS-1 832/13, neuro2A, and mouse embryonic fibroblasts.

AATF mRNA = AATF mRNA by real-time PCR in wild-type, Ire1α−/− and Perk−/− mouse embryonic fibroblasts; type: cell-based; conditions: TM 5 μg/ml, Tg 1 μM, 16 hr
Protocol: as §1, §2
The pathway by which AATF expression is regulated was investigated. IRE 1 and PERK are ER-resident protein kinases and regulators of the UPR. The expression levels of AATF were measured by real-time PCR in Ire1α^−/− and Perk^−/− mouse embryonic fibroblasts under ER stress conditions. […] To confirm this, Perk^−/− mouse embryonic fibroblasts were transfected with PERK expression plasmid, then AATF gene expression was measured. Chop expression was also measured as a control. PERK expression could restore both AATF and Chop expression (FIG. 2D).

| Compound | increase of Akt1 mRNA expression (Akt1 mRNA) | increase of AATF mRNA expression levels (AATF mRNA) |
| --- | --- | --- |
| CC(C)C[C@@H](C=O)NC(=O)[C@H](CC(C)C)NC(=O)[C@H](CC(C)C)NC(=O)OCc1ccccc1 [MG132] (Cbz-Leu-Leu-Leu-aldehyde) | 1.5-2 fold | – |
| tunicamycin | 1.5-2 fold | 2-3 fold |
